Consider 73 molecules from the supplement of paper PMC5711842.

Counter-ions that a name gives are not always drawn. Single values of this set are uncertain. Peptide text beside a SMILES is read from it. * marks the point of attachment. Cbz = O=C(OCc1ccccc1)*; CH2F = FC*

The test relates to Danio rerio embryo. Kind of test: lowest lethal concentration (of 2, 10, 50 µM tested), 10-36 hpf treatment; higher = less toxic. Particulars: treatment window: 10-36 hpf.

Take `CCCCn1c2ccc(O)cc2c2c3c(c(-c4ccccc4Cl)cc21)C(=O)NC3=O` [Wee1 Inhibitor II]: the lowest lethal concentration is greater than 50 µM.
With `O=C(O)c1ccc2c3c1cccc3c(=O)n1c3ccccc3nc21` [STO 609] the figure was greater than 50 µM; with `Nc1ncnc2c1nc(Br)n2[C@@H]1O[C@@H]2COP(=O)(O)O[C@H]2[C@H]1O` [8-bromo-cAMP], greater than 50 µM; with `N#C/C(=C/c1ccc(O)c(O)c1)C(=O)OC/C=C/c1ccccc1` [CDC], 50 µM.
Molecule `O=C(O)CCc1ccc(NCc2cccc(Oc3ccccc3)c2)cc1` [GW9508] yielded a lowest lethal concentration greater than 50 µM.
As for `FC(F)(F)c1ccccc1-n1ccnc1` [TRIM], the lowest lethal concentration was greater than 50 µM.
`FC(F)(F)c1cccc(-c2noc(-c3cc(-c4ccccc4)c(C(F)(F)F)s3)n2)c1` [SEW2871]: the lowest lethal concentration was greater than 50 µM.
`C=C1C(=O)O[C@@H]2C[C@@H](C)[C@@H]3C=CC(=O)[C@@]3(C)[C@@H](O)[C@H]12` [Helenalin]: the lowest lethal concentration was greater than 50 µM.
For the molecule `C/C1=C/C(=O)O[C@@H]2C[C@@H](CC[C@H](C)/C=C\CC1)O[C@@](O)([C@@H]1CSC(=O)N1)C2` [Latrunculin B], the lowest lethal concentration was greater than 50 µM.
With `Nc1[nH]nc2nnc(-c3c(-c4ccccc4)nn4ccccc34)cc12` the figure was greater than 50 µM.
As for `C[C@]12C[C@H](O)[C@H]3[C@@H](CCC4=CC(=O)CC[C@@]43C)[C@@H]1CC[C@@H]2C(=O)CO` [Corticosterone], the figure is greater than 50 µM; as for `O=C(N/N=C/c1ccc([N+](=O)[O-])o1)c1ccc(O)cc1` [Nifuroxazide], greater than 50 µM; as for `Cc1cccc(-c2[nH]c(C(C)(C)C)nc2-c2ccc3c(c2)OCO3)n1` [TGF-b RI Inhibitor III], greater than 50 µM.
With `CC(=O)c1ccc(NN=C(C(N)=O)C2=NC(C)(C)Cc3ccccc32)cc1` [IQ-1] the figure was 50 µM.
Molecule `Oc1ccccc1-c1ccc2cccnc2n1` [2-(1,8-Naphthyridin-2-yl)phenol] had a lowest lethal concentration greater than 50 µM.
Turning to `O=C(Nc1ccc([N+](=O)[O-])cc1O)Nc1ccccc1Br`, the lowest lethal concentration came to 50 µM.
With `O=C1Cc2c([nH]c3ccc(Br)cc23)-c2ncccc2N1` [1-Azakenpaullone] the figure was 50 µM.
As for `Nc1ncnc2c1c(-c1ccc(Oc3ccccc3)cc1)cn2C1CCCC1` [Lck Inhibitor], the figure is greater than 50 µM; as for `O=C1C(Nc2ccccc2)=CC(=O)c2ncccc21`, 50 µM; as for `CC(=O)O/N=C1/C(c2c(O)[nH]c3cc(Br)ccc23)=Nc2ccccc21` [GSK-3 Inhibitor X], greater than 50 µM.
In the case of `O=c1cc(-c2ccccc2)oc2cc(O)c(O)c(O)c12` [Baicalein], the lowest lethal concentration came out at 50 µM.
Take `O[C@H]1[C@H](O)[C@@H](O)CN2CC[C@H](O)[C@H]12` [Castanospermine]: the lowest lethal concentration was greater than 50 µM.
Consider `C/C=C/C(=O)N1C(=O)OC[C@@H]1Cc1ccccc1` [Locostatin], for which the lowest lethal concentration turned out to be 50 µM.
With `CCOc1nc(NC(=O)Cc2cc(OC)ccc2OC)cc(N)c1C#N` [JNK Inhibitor VIII] the figure was greater than 50 µM.
Molecule `COC(=O)C[C@H](NC(=O)[C@H](C)NC(=O)[C@@H](NC(=O)OCc1ccccc1)C(C)C)C(=O)CF` [Z-VAD-FMK] (Cbz-Val-Ala-Asp(OMe)-CH2F) gave a lowest lethal concentration greater than 50 µM.
Turning to `N#CC(C#N)=C(N)/C(C#N)=C/c1ccc(O)cc1` [Tyrphostin AG 112], the lowest lethal concentration was greater than 50 µM.
As for `CN=c1nc(-c2ccccc2)n(-c2ccccc2)s1`, the figure is greater than 50 µM; as for `COC[C@@H]([C@H](O)[C@H](O)C(=O)NCC[C@H](C)c1nc(/C=C/C[C@@H]2O[C@]3(C[C@@H](O)[C@@H]2C)O[C@H]([C@H](C[C@H](O)[C@H](C)[C@H](O)[C@H](C)/C=C(C)/C(C)=C/C=C/C(C)=C\C#N)OC)[C@H](OP(=O)(O)O)C3(C)C)co1)N(C)C` [Calyculin A], 50 µM; as for `O=C(Nc1nc2ccccc2n1CCN1CCOCC1)c1cccc([N+](=O)[O-])c1` [IRAK-1/4 Inhibitor], greater than 50 µM.
With `COc1cc(OC)c(C=C2C(=O)Nc3ccccc32)c(OC)c1` [IC261] the figure was 10 µM; with `c1cc(-c2sc(-c3ccncc3)c(-c3ccncc3)c2-c2ccncc2)ccn1` [GANT58], greater than 50 µM; with `Cc1nn(-c2ccccc2)c(C)c1C=NN1CCN(Cc2ccccc2)CC1` [SANT-1], greater than 50 µM.
With `O=c1cc(N2CCOCC2)oc2c(-c3ccccc3)cccc12` the figure was 50 µM; with `CCCOc1ccc(C=C2SC(=O)NC2=O)cc1`, greater than 50 µM; with `CCCCCCCCCCCCCC(=O)N[C@H](C)[C@@H](O)c1ccccc1` [D-erythro-MAPP], greater than 50 µM.
`Cc1ccccc1N1C(=O)/C(=C/C=C/c2ccccc2)SC1=S` [IMB-10] showed a lowest lethal concentration greater than 50 µM.
Turning to `O=C(Nc1cc(Cl)cc2c1[nH]c1cnccc12)c1cccnc1` [PS-1145], the lowest lethal concentration is greater than 50 µM.
`CCCCCCCCCCCCCCCCn1cc[n+](Cc2ccccc2)c1C` [NH125] returned a lowest lethal concentration of 50 µM.
With `O=C1C(SCCO)=C(SCCO)C(=O)c2ccccc21` the figure was 50 µM; with `CCCCCCCCCCCCCCCC(=O)N[C@H](CN1CCOCC1)[C@H](O)c1ccccc1` (racemic) [DL-PPMP], greater than 50 µM.
As to `CCCCC[C@H](O)/C=C/[C@@H]1[C@H]2C/C(=C/CCCC(=O)O)C[C@H]2C[C@H]1O` [Carbacyclin], the lowest lethal concentration is greater than 50 µM.
With `C=CCNC1=C2C[C@@H](C)C[C@H](OC)[C@H](O)[C@@H](C)/C=C(\C)[C@H](OC(N)=O)[C@@H](OC)/C=C\C=C(/C)C(=O)NC(=CC1=O)C2=O` [Tanespimycin] the figure was greater than 50 µM; with `Cc1cccc(Nc2cc(Cl)nc(SCC(=O)O)n2)c1C`, greater than 50 µM.
Regarding `CCCC[C@@H](C)[C@@H](OC(=O)C[C@@H](CC(=O)O)C(=O)O)[C@H](C[C@@H](C)C[C@H](O)CCCC[C@@H](O)C[C@H](O)[C@H](C)N)OC(=O)C[C@@H](CC(=O)O)C(=O)O` [Fumonisin B1], the lowest lethal concentration was greater than 50 µM.
With `CCc1oc2cc(S(=O)(=O)Nc3ccc(S(=O)(=O)Nc4nccs4)cc3)ccc2c1C(=O)c1cc(Br)c(O)c(Br)c1` [PTP1B Inhibitor] the figure was 50 µM; with `CNC(=O)[C@H](Cc1c[nH]c2ccccc12)NC(=O)[C@@H](CC(=O)NO)CC(C)C` [Ilomastat], greater than 50 µM; with `c1ccc2c(-c3ccncc3)c[nH]c2c1` [Rockout], greater than 50 µM.
Molecule `c1ccc(-c2cnc(Nc3ccc(OCCN4CCCC4)cc3)s2)cc1` [Flt-3 Inhibitor III] had a lowest lethal concentration greater than 50 µM.
As for `COc1cc2ncnc(Nc3ccc(Cl)cc3Cl)c2cc1OC` [Ste11 MAPKKK Activation Inhibitor], the figure is greater than 50 µM; as for `CNC(=O)[C@H]1O[C@@H](n2cnc3c(NCc4cccc(I)c4)ncnc32)[C@H](O)[C@@H]1O` [IB-MECA], greater than 50 µM; as for `O=C1CC(=O)c2c(Cl)c(Cl)c(Cl)c(Cl)c21` [UCH 23], greater than 50 µM.
With `OCc1ccc(-c2nn(Cc3ccccc3)c3ccccc23)o1` [YC-1] the figure was greater than 50 µM; with `CCc1ccc(/C=C2/SC(=S)NC2=O)cc1`, 50 µM.
As for `NC(=O)c1ccc(-c2nc(-c3ccccn3)c(-c3ccc4c(c3)OCO4)[nH]2)cc1`, the figure is greater than 50 µM.
`COc1cc2ncnc(Nc3cccc(Cl)c3)c2cc1OC` [AG 1478] returned a lowest lethal concentration greater than 50 µM.
Regarding `Oc1ccc2ccccc2c1SSc1c(O)ccc2ccccc12` [IPA-3], the lowest lethal concentration is greater than 50 µM.
The molecule `CCOc1ccccc1-n1c(C(C)N2CCN(C(=O)COc3ccc(Cl)cc3)CC2)nc2ccccc2c1=O` (stereo not drawn) [Erastin] had a lowest lethal concentration greater than 50 µM.
As for `O=CN1CC/C(=C/c2ccc3c(c2)OCO3)C1=O` [KNK437], the figure is greater than 50 µM; as for `O=C(O)c1ccc(CCCc2ccc(OCCc3ccc(F)cc3)cc2)o1` [AMPK Activator], 50 µM; as for `CN(C)C(=N)NC(=N)N` [Metformin hydrochloride], greater than 50 µM.
With `COc1ccc(COc2ccc(Cc3cnc(N)nc3N)cc2OC)cc1` [GW2580] the figure was greater than 50 µM; with `Cc1cc(I)ccc1Nc1c(C(=O)NOCC2CC2)cc(F)c(F)c1F`, 50 µM; with `O=c1cc(N2CCOCC2)oc2c1ccc1ccccc12` [NU7026], greater than 50 µM.
`CC(=O)O[C@@H]1[C@@H](OC(C)=O)[C@@H](O)[C@H](Oc2c(-c3ccc(O)cc3)oc3cc(O)cc(O)c3c2=O)O[C@H]1C` [SL 0101-1] came in with a lowest lethal concentration greater than 50 µM.
With `COc1ccc(S(=O)(=O)N(CCO)c2ccccc2CN(C)CC=Cc2ccc(Cl)cc2)cc1` [KN-93] the figure was greater than 50 µM.
`O=C(Nc1ncc([N+](=O)[O-])s1)c1ccc([N+](=O)[O-])c(Cl)c1` [NF-kappaB Activation Inhibitor III] yielded a lowest lethal concentration of 50 µM.
The molecule `N#Cc1cnc2cnc(NCc3cccnc3)cc2c1NC1CCCCCC1` [Tpl2 Kinase Inhibitor II] had a lowest lethal concentration greater than 50 µM.
With `FC(F)(F)c1nnc2c(Sc3ccccc3)nc3ccc(Cl)cc3n12` [R 7050] the figure was greater than 50 µM; with `NCCNc1ncc(C(N)=O)c(Nc2cccc(C(F)(F)F)c2)n1` [Syk Inhibitor II], greater than 50 µM; with `Cc1ccc(S(=O)(=O)/C=C/C#N)cc1` [Bay 11-7082], 10 µM.
With `NC(=O)c1ncn([C@@H]2O[C@H](CO)[C@@H](O)[C@H]2O)c1N` [Acadesine] the figure was greater than 50 µM; with `Oc1cccc(-c2nc(N3CCOCC3)c3sccc3n2)c1` [PI 3-Kalpha Inhibitor IV], 50 µM.
In turn, `Clc1ccc(C(c2ccc(Cl)cc2)[n+]2ccn(CC(OCc3ccc(Cl)cc3Cl)c3ccc(Cl)cc3Cl)c2)cc1` (stereo not drawn) [Calmidazolium Chloride] showed a lowest lethal concentration of 50 µM.
